Results as given in patent US20240117019A1.

Tests used:
[1] = biological target: PspA, serotype 12F (Streptococcus pneumoniae); experiment: ELISA on plates coated with fixed whole bacteria, serotype 12F, OD405
[2] = biological target: PspA, serotype 2 (Streptococcus pneumoniae); experiment: ELISA on plates coated with fixed whole bacteria, serotype 2, OD405
[3] = biological target: PspA, serotype 11A (Streptococcus pneumoniae); experiment: ELISA on plates coated with fixed whole bacteria, serotype 11a, OD405
[4] = biological target: PspA, serotype 12F (Streptococcus pneumoniae); experiment: flow cytometry on whole bacteria, serotype 12F
[5] = biological target: PspA, serotype 9N (Streptococcus pneumoniae); experiment: flow cytometry on whole bacteria, serotype 9N
[6] = biological target: PspA, serotype 2 (Streptococcus pneumoniae); experiment: flow cytometry on whole bacteria, serotype 2
[7] = biological target: PspA, serotype 9N (Streptococcus pneumoniae); experiment: ELISA on plates coated with fixed whole bacteria, serotype 9N, OD405
[8] = biological target: PspA, serotype 6D (Streptococcus pneumoniae); experiment: ELISA on plates coated with fixed whole bacteria, serotype 6D, OD405
[9] = biological target: PspA, serotype 11A (Streptococcus pneumoniae); experiment: flow cytometry on whole bacteria, serotype 11A
[10] = biological target: PspA, serotype 6D (Streptococcus pneumoniae); experiment: flow cytometry on whole bacteria, serotype 6d
[11] = biological target: PspA, serotype 6C (Streptococcus pneumoniae); experiment: flow cytometry on whole bacteria, serotype 6c
[12] = biological target: PspA, serotype 6C (Streptococcus pneumoniae); experiment: ELISA on plates coated with fixed whole bacteria, serotype 6C, OD405

B1: human monoclonal antibody PspA16 (antibody, V domains shown)
VH: QVQLVQSGPDVKKPGASVKVSCKTSGYTFTGYYMHWVRQAPGQGLEWMGWVNPNTGGTSYAQKFQGRVTVTRDTSISTVYMELSALGSDDTAIYFCARAWAPGAEYLHHWGQGTLVTVSS
VL: EIVMTQSPGTLSLSPGETATLSCRASQSVGSSYLAWYQQKPGQAPRLLIFGASNRATGIPVRFSASGSGTDFTLTISRLEPEDFAVYYCQQHDHSPFTFGPGTKVDLK
binding [1]: no binding (tested: log10 1.3 (about 20 µg/ml))
binding [2]: no binding (tested: log10 1.3 (about 20 µg/ml))
binding [3]: no binding (tested: log10 1.3 (about 20 µg/ml))
binding [4]: no binding (tested: 10 µg/ml (single concentration))
binding [5]: no binding (tested: 10 µg/ml (single concentration))
binding [6]: no binding (tested: 10 µg/ml (single concentration))
binding [7]: no binding (tested: log10 1.3 (about 20 µg/ml))
binding [8]: no binding (tested: log10 1.3 (about 20 µg/ml))
binding [9]: no binding (tested: 10 µg/ml (single concentration))
binding [10]: no binding (tested: 10 µg/ml (single concentration))
binding [11]: no binding (tested: 10 µg/ml (single concentration))
binding [12]: no binding (tested: log10 1.3 (about 20 µg/ml))

No constants are given. Whether binding was seen depends on the method and setting.
